According to patent publication US9145424B2, “Treatment of amyotrophic lateral sclerosis” (Northwestern University, priority 2008, dated 2015):

Test system: PC12 cells that express mutant G93A SOD1
Assay: Mutant SOD1-induced cytotoxicity protection assay
Description: This idea was tested by examining the sensitivity of PC12 cells to SOD1 aggregates in the presence and absence of proteasome inhibitor MG132. PC12 cells expressing no SOD1, wild type SOD1, G85R SOD1 or G93A SOD1 were grown with or without MG132 (FIG. 1).
PC12 cells expressing G93A SOD1 were treated with 100 nM MG132 with or without co-treatment with geldanamycin or radicicol.

## Nc1nc2ccc(OC(F)(F)F)cc2s1 [riluzole, Riluzole, reference compound]
  activity in the cytotoxicity protection assay, in words: negative
